Measurements from PubChem BioAssay (NCI).
What follows is the remainder of the data, with few or none of the hits. The source made the active and inactive calls. No stated cut-off is given here; in the data, active means growth inhibition above about 70%; inactive means the rest.

Assay: NCI Yeast Anticancer Drug Screen. Data for the wt1 strain (AID 149);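 further: 0% = growth of vehicle-treated wt1 cultures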
Conditions: S. cerevisiae wt1 strain (SPY 50644) growth inhibition, stronger effect = higher value
Procedure: Growth inhibition of yeast strains with defined genetic alterations is measured as a screen for potential anti-cancer activity. Selected strains with alterations in DNA damage repair or cell cycle control were exposed to compounds and growth inhibition was measured relative to vehicle treated controls. The strain used in this assay is wt1

Measured: growth inhibition

Nc1nc(N)c2[nH]c(CNc3ccc(C(=O)O)cc3)nc2n1
inactive: at 1.2 µM 0% | at 3.7 µM 0% | at 11.0 µM 0% | at 33.0 µM -3% | at 100.0 µM -1%

Cc1cc(C(c2ccccc2)(c2ccccc2)c2ccccc2)ccc1N
inactive: at 1.2 µM -1% | at 3.7 µM 1% | at 11.0 µM 2% | at 33.0 µM 0% | at 100.0 µM 2%

Cc1ccc(N2C(=O)/C(=C3\Sc4c(nc(C)[nH]c4=O)N3c3ccccc3)SC2=S)cc1
inactive: at 1.2 µM 0% | at 3.7 µM -2% | at 11.0 µM -1% | at 33.0 µM 0% | at 100.0 µM -2%

CSC1=NS(=O)(=O)c2cc(C(=O)NN(C)C(=O)c3cc4c(cc3Cl)SC(SC)=NS4(=O)=O)c(Cl)cc2S1
inactive: at 1.2 µM 5% | at 3.7 µM 11% | at 11.0 µM 12% | at 33.0 µM 13% | at 100.0 µM 8%

O=C1Nc2ccccc2NC1C1OC(c2ccccc2)=CC1=O (stereo not given)
inactive: at 1.2 µM 13% | at 3.7 µM 18% | at 11.0 µM 18% | at 33.0 µM 1% | at 100.0 µM -8%

COc1cccc(/C=C2/S/C(=N/Nc3nc(C)c(C(C)=O)s3)NC2=O)c1O
inactive: at 1.2 µM 1% | at 3.7 µM 3% | at 11.0 µM 4% | at 33.0 µM 12% | at 100.0 µM 22%

CC[C@]1(O)C[C@H]2CN(CCc3c([nH]c4ccccc34)[C@@](C(=O)OC)(c3cc4c(cc3OC)N(C=O)[C@H]3[C@@](O)(C(=O)OC)[C@H](OC(C)=O)[C@]5(CC)C=CCN6CC[C@]43[C@@H]65)C2)C1
inactive: at 1.2 µM 0% | at 3.7 µM -1% | at 11.0 µM -3% | at 33.0 µM -8% | at 100.0 µM -21%

CCCCC/C(C)=N/Nc1ccc([N+](=O)[O-])cc1[N+](=O)[O-]
inactive: at 1.2 µM -2% | at 3.7 µM -6% | at 11.0 µM -3% | at 33.0 µM -2% | at 100.0 µM -2%
